Here are results for two substances from publication PMC5465582.

Amino acid sequences for entries named in this document (tags omitted).
UniProt Q96GD4: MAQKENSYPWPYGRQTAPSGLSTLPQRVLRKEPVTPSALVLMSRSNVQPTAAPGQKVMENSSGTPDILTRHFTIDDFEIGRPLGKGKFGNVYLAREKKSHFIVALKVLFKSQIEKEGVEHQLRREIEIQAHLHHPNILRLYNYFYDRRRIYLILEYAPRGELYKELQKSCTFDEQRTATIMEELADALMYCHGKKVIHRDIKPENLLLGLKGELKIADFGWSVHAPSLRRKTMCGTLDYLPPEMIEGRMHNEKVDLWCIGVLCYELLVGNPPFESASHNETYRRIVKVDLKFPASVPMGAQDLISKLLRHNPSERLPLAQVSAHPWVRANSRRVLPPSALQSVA

For assay [1], the target named is T1, aurora kinase A (human (endogenous in U251)) (UniProt O14965).
T1 sequence: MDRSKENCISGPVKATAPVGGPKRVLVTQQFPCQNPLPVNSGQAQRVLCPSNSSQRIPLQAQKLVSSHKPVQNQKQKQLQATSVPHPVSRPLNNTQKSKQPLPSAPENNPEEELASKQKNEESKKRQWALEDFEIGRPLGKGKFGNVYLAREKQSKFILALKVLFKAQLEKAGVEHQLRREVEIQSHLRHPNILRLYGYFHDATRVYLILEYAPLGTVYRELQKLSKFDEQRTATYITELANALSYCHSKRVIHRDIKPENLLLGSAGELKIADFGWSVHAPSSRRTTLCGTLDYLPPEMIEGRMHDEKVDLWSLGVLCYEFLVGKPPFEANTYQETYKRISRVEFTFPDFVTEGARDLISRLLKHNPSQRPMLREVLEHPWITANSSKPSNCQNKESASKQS
The experiment in a line: co-IP; endogenous proteins, nuclear and cytoplasmic fractions of U251 cells (Nuclear Extract Kit); IP and Western blotting.

Assay [2] concerns the target T1, aurora kinase A (human (endogenous in U251)). The experiment in a line: co-IP; endogenous proteins, U251 whole cell lysate in GLB+ buffer (10 mM Tris-HCl pH 7.5, 300 mM NaCl, 10 mM EDTA, 0.5% Triton X-100); 2 ug antibody with 500 ug lysate 12 h at 4 C, Protein G beads; also in cells transfected with pEGFP-C1-SIX3 (interaction not affected, less AURKB precipitated by the AURKA antibody).

For a further assay, the target named is T2, AURKA-Flag (UniProt O14965).
T2 sequence: T1 sequence
The experiment in a line: co-IP; AURKA-Flag and AURKB-GFP co-transfected in U251 cells, lysed 48 h after transfection.

Results are given in words; binding and its absence hold for the method and conditions named. Binding seen in cells or lysates may run through a third protein. Some results given as binding are weak or reduced against the parent protein; the word gives no strength. For part of these data: Tags and fused reporters may be left off the sequences shown.

For “aurora kinase B (from UniProt Q96GD4 1-344)”, the binding entry in assay [1] and in assay [2] was “binds” in each case.

Take AURKB-GFP (from UniProt Q96GD4 1-344): the binding result with AURKA-Flag was “binds”.
